The list shows only some results of the screen, not a fair sample: it covers a few groups of compounds. Other doses and runs of a compound may be missing. T/C: endpoint of the treated group in % of that of the vehicle group. Some doses have a count of surviving animals in place of a T/C: the source holds a T/C of zero for them, seemingly a mark for toxic or unscored doses. Some doses without a T/C left all or most animals alive at the check, yet need not have been tolerated: survival well below the control is almost never listed, so the zero probably covers shortened survival too. Counts of survivors are from the toxicity check (mostly the fifth day) where no day follows; animals may have died later. Schedules are NCI's codes, taken here to give the interval after Q, in days (D) or hours (H), and the number of doses after X. Some entries hold several experiments; the results are listed from low to high. Where survival is the endpoint, this PubChem deposit counts one and a half times the control or more as active, and values a quarter to a half above the control carry no call in these data; other NCI protocols may use other cut-offs. Some T/C values are followed by the survivors on the day toxicity was checked, most often the fifth; without a count or a note in brackets, all were alive then. Additions like (4×) stand for listed records that agree. Some entries show no survivor count and are marked so; the dose need not have been tolerated.
System: CD2F1 mice, L1210 leukemia ip, survival T/C
Test: NCI In Vivo Anticancer Drug Screen. Data for tumor model L1210 Leukemia (intraperitoneal) in CD2F1 (CDF1) mice
Settings: T/C endpoint: mean survival time, higher T/C = longer survival
Method: The antitumor activity of compounds was measured in mice bearing transplantable tumors. Survival or tumor size were measured and the results are expressed as the measurement made in the treated group (T) divided by the measurement made in the vehicle treated control group (C). The tumor model used in this assay is L1210 Leukemia (intraperitoneal) in CD2F1 (CDF1) mice

[1] = dose: 100.0 mg/kg/injection, schedule: Q01DX009 (ip), vehicle: Klucel (hydroxypropylcellulose) (HPC)
[2] = dose: 25.0 mg/kg/injection, schedule: Q01DX009 (ip), vehicle: saline
[3] = dose: 50.0 mg/kg/injection, schedule: Q01DX009 (ip), vehicle: saline
[4] = dose: 100.0 mg/kg/injection, schedule: Q01DX009 (ip), vehicle: saline
[5] = dose: 62.5 mg/kg/injection, schedule: Q01DX001 (ip), vehicle: distilled water + Tween-80
[6] = dose: 125.0 mg/kg/injection, schedule: Q01DX001 (ip), vehicle: distilled water + Tween-80
[7] = dose: 250.0 mg/kg/injection, schedule: Q01DX001 (ip), vehicle: distilled water + Tween-80

For `ClCCN(CCCl)c1ccccc1`, the T/C (dose: 1.56 mg/kg/injection, schedule: Q01DX009 (ip), vehicle: Klucel (hydroxypropylcellulose) (HPC)) was 101 % of control, the T/C (dose: 3.12 mg/kg/injection, schedule: Q01DX009 (ip), vehicle: Klucel (hydroxypropylcellulose) (HPC), evaluated on day 30) was 102, 108 (2×), 111 % of control [5 of 6 alive] and the T/C (dose: 3.12 mg/kg/injection, schedule: Q01DX009 (ip), vehicle: Klucel (hydroxypropylcellulose) (HPC), evaluation day not shown) was 102 % of control [survivor count not shown] (2×). The T/C (dose: 3.13 mg/kg/injection, schedule: Q01DX009 (ip), vehicle: Klucel (hydroxypropylcellulose) (HPC)) was 108 % of control [survivor count not shown], the T/C (dose: 6.0 mg/kg/injection, schedule: Q01DX009 (ip), vehicle: saline with Tween-80) was 106 % of control [survivor count not shown] and the T/C (dose: 6.25 mg/kg/injection, schedule: Q01DX009 (ip), vehicle: Klucel (hydroxypropylcellulose) (HPC), evaluated on day 30) was 100, 104, 114, 118 % of control. For the same molecule, the T/C (dose: 6.25 mg/kg/injection, schedule: Q01DX009 (ip), vehicle: Klucel (hydroxypropylcellulose) (HPC), evaluation day not shown) was 103 [survivor count not shown], 106 [survivor count not shown], 107 % of control [survivor count not shown], the T/C (dose: 12.0 mg/kg/injection, schedule: Q01DX009 (ip), vehicle: saline with Tween-80) was 106 % of control [survivor count not shown] and the T/C (dose: 12.5 mg/kg/injection, schedule: Q01DX009 (ip), vehicle: Klucel (hydroxypropylcellulose) (HPC), evaluated on day 30) was 111, 117, 118, 119 % of control. For the same molecule, the T/C (dose: 12.5 mg/kg/injection, schedule: Q01DX009 (ip), vehicle: Klucel (hydroxypropylcellulose) (HPC), evaluation day not shown) was 103 [survivor count not shown] and 110 % of control [survivor count not shown] (2×), the T/C (dose: 24.0 mg/kg/injection, schedule: Q01DX009 (ip), vehicle: saline with Tween-80) was 128 % of control [survivor count not shown] and the T/C (dose: 25.0 mg/kg/injection, schedule: Q01DX009 (ip), vehicle: Klucel (hydroxypropylcellulose) (HPC), evaluated on day 30) was 112, 113, 117, 140 % of control. For the same molecule, the T/C (dose: 25.0 mg/kg/injection, schedule: Q01DX009 (ip), vehicle: Klucel (hydroxypropylcellulose) (HPC), evaluation day not shown) was 111 [survivor count not shown], 114 [survivor count not shown], 128 % of control [survivor count not shown], the T/C (dose: 48.0 mg/kg/injection, schedule: Q01DX009 (ip), vehicle: saline with Tween-80) was 110 % of control [survivor count not shown] and the T/C (dose: 50.0 mg/kg/injection, schedule: Q01DX009 (ip), vehicle: Klucel (hydroxypropylcellulose) (HPC), evaluated on day 30) was 90 (2×) and 113 % of control. The T/C (dose: 50.0 mg/kg/injection, schedule: Q01DX009 (ip), vehicle: Klucel (hydroxypropylcellulose) (HPC), evaluation day not shown) was 101 [survivor count not shown] and 116 % of control [survivor count not shown], the survivor count (dose: 50.0 mg/kg/injection, schedule: Q01DX009 (ip), vehicle: Klucel (hydroxypropylcellulose) (HPC)) was 5 of 6 and the T/C [1] was 160 % of control. For the same molecule, the survivor count [1] was 0 of 6 and 3 of 6.
`CCC1(N(CCCl)CCCl)C(=O)NC(=O)NC1=O` was tested, and the T/C [2] was 98 % of control [survivor count not shown], the T/C (dose: 25.0 mg/kg/injection, schedule: Q04DX002 (ip), vehicle: saline) was 101 % of control [survivor count not shown] and the T/C [3] was 112 % of control [survivor count not shown]. The T/C (dose: 50.0 mg/kg/injection, schedule: Q04DX002 (ip), vehicle: saline) was 98 % of control [survivor count not shown], the T/C [4] was 121 % of control [survivor count not shown] and the T/C (dose: 100.0 mg/kg/injection, schedule: Q04DX002 (ip), vehicle: saline) was 110 % of control [survivor count not shown].
In the case of `CC1CC(C)OP(=O)(N(CCCl)CCCl)N1` (centres undefined), the T/C (dose: 15.63 mg/kg/injection, schedule: Q01DX001 (ip), vehicle: distilled water + Tween-80) is reported as 96 % of control [survivor count not shown], the T/C (dose: 15.63 mg/kg/injection, schedule: Q01DX001 (ip), vehicle: water, evaluated on day 30) is reported as 102 % of control and the T/C (dose: 15.63 mg/kg/injection, schedule: Q01DX001 (ip), vehicle: water, evaluation day not shown) is reported as 94 [survivor count not shown] and 100 % of control [survivor count not shown]. For the same molecule, the T/C (dose: 31.25 mg/kg/injection, schedule: Q01DX001 (ip), vehicle: distilled water + Tween-80) was 100 % of control [survivor count not shown], the T/C (dose: 31.25 mg/kg/injection, schedule: Q01DX001 (ip), vehicle: water, evaluated on day 30) was 97 % of control and the T/C (dose: 31.25 mg/kg/injection, schedule: Q01DX001 (ip), vehicle: water, evaluation day not shown) was 98 % of control [survivor count not shown] (2×). For the same molecule, the T/C [5] was 104 % of control [survivor count not shown], the T/C (dose: 62.5 mg/kg/injection, schedule: Q01DX001 (ip), vehicle: water, evaluated on day 30) was 92 % of control and the T/C (dose: 62.5 mg/kg/injection, schedule: Q01DX001 (ip), vehicle: water, evaluation day not shown) was 111 [survivor count not shown] and 117 % of control [survivor count not shown]. For the same molecule, the T/C [6] was 110 % of control [survivor count not shown], the T/C (dose: 125.0 mg/kg/injection, schedule: Q01DX001 (ip), vehicle: water, evaluated on day 30) was 112 % of control and the T/C (dose: 125.0 mg/kg/injection, schedule: Q01DX001 (ip), vehicle: water, evaluation day not shown) was 102 [survivor count not shown] and 111 % of control [survivor count not shown]. For the same molecule, the T/C [7] was 122 % of control [survivor count not shown], the T/C (dose: 250.0 mg/kg/injection, schedule: Q01DX001 (ip), vehicle: water, evaluated on day 30) was 126 % of control and the T/C (dose: 250.0 mg/kg/injection, schedule: Q01DX001 (ip), vehicle: water, evaluation day not shown) was 94 [survivor count not shown] and 115 % of control [survivor count not shown]. The survivor count (dose: 500.0 mg/kg/injection, schedule: Q01DX001 (ip), vehicle: water) was 0 of 6.
With `CN1CC(C(C)(C)C)COP1(=O)N(CCCl)CCCl` (centres undefined) the T/C [5] was 107 % of control and the T/C [6] was 94 % of control.
With `CC(C)NP(=S)(Cl)Cl` the T/C (dose: 12.5 mg/kg/injection, schedule: Q01DX009 (ip), vehicle: saline with Tween-80) was 106 % of control [survivor count not shown], the T/C (dose: 12.5 mg/kg/injection, schedule: Q04DX003 (ip), vehicle: saline) was 97 % of control [survivor count not shown] and the T/C (dose: 25.0 mg/kg/injection, schedule: Q01DX009 (ip), vehicle: saline with Tween-80) was 98 % of control [survivor count not shown]. The T/C (dose: 25.0 mg/kg/injection, schedule: Q04DX003 (ip), vehicle: saline) was 101 % of control [survivor count not shown], the T/C (dose: 50.0 mg/kg/injection, schedule: Q01DX009 (ip), vehicle: saline with Tween-80) was 98 % of control [survivor count not shown] and the T/C (dose: 50.0 mg/kg/injection, schedule: Q04DX003 (ip), vehicle: saline) was 97 % of control [survivor count not shown].
`CC(C)(C)[Si](C)(C)OP(N)(=O)N(CCCl)CCCl` (centres undefined) was tested, and the T/C (dose: 15.6 mg/kg/injection, schedule: Q01DX001 (ip), vehicle: distilled water + Tween-80) was 100 % of control, the T/C (dose: 31.3 mg/kg/injection, schedule: Q01DX001 (ip), vehicle: distilled water + Tween-80) was 110 % of control and the T/C [5] was 98, 107, 117 % of control. The T/C [6] was 98, 110, 132 % of control, the T/C [7] was 103, 111, 138 % of control and the T/C (dose: 500.0 mg/kg/injection, schedule: Q01DX001 (ip), vehicle: distilled water + Tween-80) was 88 [5 of 6 alive], 103, 117 % of control.
For `CC/C(C)=N/N(CCCl)CCCl`, the T/C (dose: 12.5 mg/kg/injection, schedule: Q01DX009 (ip), vehicle: saline) was 108 % of control [survivor count not shown], the T/C [2] was 115 % of control [survivor count not shown] and the T/C [3] was 144 % of control [survivor count not shown]. The T/C [4] was 102 % of control [survivor count not shown].

— PubChem BioAssay AID256 (DTP/NCI, 2004)
